Data as given in PubChem BioAssay AID504808 (Drosophila RNAi Screening Center, 2011).
The screen tested about 21,000 reagents; this is an unselected part of those that have a named target and a result. In the full data, 18 (0.084%) were called active. 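Raw counts without plate normalisation, one of two replicates; the ratio scores behind the calls were not deposited.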 No sequences are given here. Not stated in the record: the amount of reagent, the time to read-out.

Aim: 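Genes whose loss lifts activity of an E2F-responsive reporter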 (primary screen)
System: Drosophila S2 cells
Reagents: long dsRNA against Drosophila genes
Measured: 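Firefly luciferase driven by E2F sites, normalised to Renilla luciferase on the same minimal promoter, measured by plate reader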
Direction: E2F firefly: higher = more E2F reporter activity; Renilla normaliser: higher = more normaliser reporter signal
Hit rule: 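Called active if the normalised E2F reporter went up by over 50%; the cutoff is arbitrary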

Knock-down of Ublcp1 [SID104193941] gave: E2F firefly, rep 1 = 62050; Renilla normaliser, rep 1 = 2698; inactive. Spp [SID104180120] gave E2F firefly, rep 1 = 93216; Renilla normaliser, rep 1 = 4023; inactive. CG5532 [SID104184301] gave E2F firefly, rep 1 = 48965; Renilla normaliser, rep 1 = 3110; inactive. With knock-down of CG9162 (retired record) [SID104182943] the results were E2F firefly, rep 1 = 78435; Renilla normaliser, rep 1 = 3537; inactive. For CG30154 [SID104185681], the values are E2F firefly, rep 1 = 1.79e5; Renilla normaliser, rep 1 = 5802; inactive. After knock-down of beta4GalNAcTB [SID104194661] the results were E2F firefly, rep 1 = 1.17e5; Renilla normaliser, rep 1 = 5514; inactive.

After knock-down of CG18258 [SID104199590], the screen gave E2F firefly, rep 1 = 1.36e5; Renilla normaliser, rep 1 = 6921; inactive. Knock-down of Stoml2 [SID104184118] resulted in: E2F firefly, rep 1 = 85094; Renilla normaliser, rep 1 = 3175; inactive. CG15286 [SID104181699] scored E2F firefly, rep 1 = 86175; Renilla normaliser, rep 1 = 4230; inactive. With knock-down of ZC3H3 [SID104190488] the results were E2F firefly, rep 1 = 42041; Renilla normaliser, rep 1 = 3496; inactive. With knock-down of CAP [SID104185007] the results were E2F firefly, rep 1 = 1.28e5; Renilla normaliser, rep 1 = 4276; inactive. With knock-down of CAP [SID104186535] the results were E2F firefly, rep 1 = 3042; Renilla normaliser, rep 1 = 208; inactive.

Depletion of CAP [SID104186536] came out at: E2F firefly, rep 1 = 1.37e5; Renilla normaliser, rep 1 = 5551; inactive. CAP [SID104186537] scored E2F firefly, rep 1 = 1.60e5; Renilla normaliser, rep 1 = 4852; inactive. With knock-down of CAP [SID104186638], the screen gave E2F firefly, rep 1 = 1.56e5; Renilla normaliser, rep 1 = 4568; inactive.
